PubChem BioAssay AID652243 | Drosophila RNAi Screening Center – 2013

Aim: 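Fly genes required for human androgen receptor driven transcription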 (primary screen)
System: Drosophila S2R+ cells
Reagent: long dsRNA against Drosophila genes
Duration: 72 h (48 h, then 24 h hormone)
Challenge: synthetic androgen R1881 at 10 nM for 24 h
Read-out: 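Per-well raw luminescence of the androgen-driven firefly reporter and of the Renilla control, two replicates each, without normalisation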
Direction: firefly reporter light: higher = more light from androgen-responsive reporter; Renilla control light: higher = more constitutive control signal (cell number, transfection)
Call rule: 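Hit when the log firefly-to-Renilla ratio dropped or increased by a fixed fold versus the mean of GFP or LacZ controls across duplicate plates; lowering cut given as 1.5 and as 3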
Calls: active = hit: reporter lowered or raised; inactive = no hit
The screen tested about 24,000 reagents; below is an unselected part of those that have a named target and a result. In the full data, 246 (1%) were called active. 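Plates not normalised; calls are printed but the firefly/Renilla ratio behind them is not deposited; fold cut for lowering reported inconsistently.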 Raw values are not corrected between plates. Not given: the amount of reagent.

| gene | PubChem SID | firefly reporter light, replicate 1 | firefly reporter light, replicate 2 | Renilla control light, replicate 1 | Renilla control light, replicate 2 | call |
| --- | --- | --- | --- | --- | --- | --- |
| alpha4GT1 (alpha1,4-galactosyltransferase 1) | SID104180280 | 1.07e6 | 1.21e6 | 1.50e6 | 1.36e6 | inactive |
| Osi12 (Osiris 12) | SID104191969 | 1.17e5 | 96811 | 1.87e6 | 1.91e6 | inactive |
| dnr1 (defense repressor 1) | SID104183740 | 2.46e5 | 1.91e5 | 6.48e5 | 5.59e5 | inactive |
| dnr1 (defense repressor 1) | SID104183914 | 1.76e5 | 1.96e5 | 1.58e6 | 1.27e6 | inactive |
| dnr1 (defense repressor 1) | SID104204645 | 2.67e5 | 3.12e5 | 6.76e5 | 3.52e5 | inactive |
| gol (goliath) | SID104184481 | 9.93e5 | 8.97e5 | 2.15e6 | 2.37e6 | inactive |
| dgt6 (dim gamma-tubulin 6) | SID104194216 | 35862 | 51265 | 4.46e5 | 4.55e5 | inactive |
| Ugt37D1 (UDP-glycosyltransferase family 37 member D1) | SID104182437 | 1.86e5 | 1.17e5 | 1.36e6 | 1.19e6 | inactive |
| Ugt37D1 (UDP-glycosyltransferase family 37 member D1) | SID104202973 | 4.48e5 | 2.87e5 | 2.00e6 | 8.71e5 | inactive |
| cos (costa) | SID104187390 | 8.66e5 | 8.46e5 | 2.26e6 | 1.92e6 | inactive |
| cos (costa) | SID104206991 | 3.01e5 | 5.51e5 | 9.06e5 | 1.44e6 | inactive |
| HP1D3csd (Heterochromatin Protein 1D3 chromoshadow domain) | SID104199340 | 1.54e5 | 1.55e5 | 7.37e5 | 5.04e5 | inactive |
| dpr4 (defective proboscis extension response 4) | SID104194323 | 2.12e5 | 2.26e5 | 2.65e6 | 2.46e6 | inactive |
| dpr4 (defective proboscis extension response 4) | SID104194721 | 2.81e5 | 1.92e5 | 2.70e6 | 2.34e6 | inactive |
| Upf2 | SID104198010 | 3.04e5 | 2.76e5 | 2.58e6 | 2.01e6 | inactive |
| Upf2 | SID104206329 | 2.35e5 | 2.09e5 | 3.83e5 | 7.14e5 | inactive |
| CG13310 | SID104189773 | 1.16e5 | 1.84e5 | 1.77e6 | 1.52e6 | inactive |
| CG13310 | SID104206802 | 3.66e5 | 6.00e5 | 1.11e6 | 1.78e6 | inactive |
| CG2938 | SID104198035 | 1.18e5 | 81184 | 8.79e5 | 7.20e5 | inactive |
| CG2938 | SID104206463 | 1.03e6 | 7.00e5 | 2.28e6 | 1.65e6 | inactive |
| LS2 (Large Subunit 2) | SID104184132 | 1.92e5 | 2.17e5 | 1.28e6 | 1.95e6 | inactive |
| CG8773 | SID104196236 | 47782 | 39330 | 2.96e5 | 4.32e5 | inactive |
| CG8773 | SID104202934 | 7.18e5 | 8.23e5 | 8.50e5 | 8.25e5 | inactive |
| CG10055 | SID104192295 | 91187 | 1.64e5 | 1.90e6 | 1.65e6 | inactive |
| CG10336 | SID104181829 | 1.32e6 | 1.08e6 | 1.28e6 | 1.28e6 | inactive |

The list goes on, starting with the last 3 of the part before.
| gene | PubChem SID | firefly reporter light, replicate 1 | firefly reporter light, replicate 2 | Renilla control light, replicate 1 | Renilla control light, replicate 2 | call |
| --- | --- | --- | --- | --- | --- | --- |
| CG8773 | SID104202934 | 7.18e5 | 8.23e5 | 8.50e5 | 8.25e5 | inactive |
| CG10055 | SID104192295 | 91187 | 1.64e5 | 1.90e6 | 1.65e6 | inactive |
| CG10336 | SID104181829 | 1.32e6 | 1.08e6 | 1.28e6 | 1.28e6 | inactive |
| CycG (Cyclin G) | SID104194116 | 97120 | 1.07e5 | 6.74e5 | 5.21e5 | inactive |
| CycG (Cyclin G) | SID104202702 | 9.48e5 | 8.96e5 | 9.73e5 | 8.73e5 | inactive |
| CycG (Cyclin G) | SID104214538 | – | – | – | – | inactive |
| CG7430 | SID104190637 | 21056 | 18212 | 2.97e5 | 2.93e5 | inactive |
| CG10064 | SID104189481 | 1.13e5 | 1.64e5 | 1.43e6 | 1.60e6 | inactive |
| CG3021 | SID104197957 | 1.62e5 | 1.92e5 | 2.68e6 | 2.29e6 | inactive |
| CG3021 | SID104198444 | 2.60e5 | 2.65e5 | 4.69e6 | 3.89e6 | inactive |
| CG6753 | SID104195900 | 98561 | 1.16e5 | 1.72e6 | 1.17e6 | inactive |
| CG6753 | SID104206993 | 4.03e5 | 4.29e5 | 3.90e5 | 7.93e5 | inactive |
| Nepl16 (Neprilysin-like 16) | SID104194442 | 1.73e5 | 1.11e5 | 1.82e6 | 1.49e6 | inactive |
| knon (knotted onions) | SID104186841 | 51407 | 74030 | 9.74e5 | 9.74e5 | inactive |
| Eaf6 (Esa1-associated factor 6) | SID104189693 | 3.92e5 | 3.30e5 | 2.38e6 | 3.45e6 | inactive |
| Dop1R2 (Dopamine 1-like receptor 2) | SID104193750 | 1.43e6 | 9.37e5 | 3.27e6 | 1.19e6 | inactive |
| Dop1R2 (Dopamine 1-like receptor 2) | SID104195171 | 2.00e5 | 2.01e5 | 1.40e6 | 2.74e6 | inactive |
| Dop1R2 (Dopamine 1-like receptor 2) | SID104206816 | 4.33e5 | 4.66e5 | 9.43e5 | 1.09e6 | inactive |
| CG15905 | SID104186383 | 1.09e5 | 1.34e5 | 1.18e6 | 1.46e6 | inactive |
| Sec22 (Secretory 22) | SID104207841 | 4.57e5 | 4.94e5 | 1.29e6 | 1.26e6 | inactive |
| unc-5 | SID104185337 | 6.25e5 | 6.02e5 | 2.12e6 | 2.01e6 | inactive |
| unc-5 | SID104187503 | 68156 | 47085 | 1.53e6 | 1.53e6 | inactive |
| unc-5 | SID104187504 | 38414 | 54105 | 1.21e6 | 1.21e6 | inactive |
| PIG-T (Phosphatidylinositol glycan anchor biosynthesis class T) | SID104197566 | 2.04e5 | 2.71e5 | 3.99e6 | 4.16e6 | inactive |
| CG31008 | SID104193820 | 1.04e6 | 6.18e5 | 9.39e5 | 4.60e5 | inactive |
| CG31008 | SID104205778 | 2.25e5 | 3.02e5 | 6.73e5 | 8.93e5 | inactive |
| Fmr1 (Fragile X messenger ribonucleoprotein 1) | SID104196466 | 1.21e5 | 1.07e5 | 2.38e6 | 2.49e6 | inactive |
| Fmr1 (Fragile X messenger ribonucleoprotein 1) | SID104205325 | 2.78e5 | 3.12e5 | 5.66e5 | 5.94e5 | inactive |
| mthl11 (methuselah-like 11) | SID104192571 | 1.51e5 | 73756 | 27786 | 1.56e5 | inactive |
| mthl11 (methuselah-like 11) | SID104206981 | 3.69e5 | 4.54e5 | 4.51e5 | 7.62e5 | inactive |
| CG13215 | SID104186129 | 3.77e5 | 3.88e5 | 2.23e6 | 2.05e6 | inactive |
| Ppox (Protoporphyrinogen oxidase) | SID104196825 | 2.23e5 | 2.38e5 | 2.47e6 | 2.53e6 | inactive |
| CG17570 | SID104181562 | 1.61e5 | 1.69e5 | 5.99e5 | 5.50e5 | inactive |
| CG17570 | SID104183546 | 1.52e5 | 1.24e5 | 1.27e6 | 1.14e6 | inactive |
| CG4362 | SID104195359 | 3.25e5 | 3.19e5 | 2.58e6 | 2.61e6 | inactive |
| CG33493 | SID104190434 | 2.88e5 | 2.86e5 | 3.18e6 | 2.59e6 | inactive |
| CG33493 | SID104204091 | 7.92e5 | 8.27e5 | 1.28e6 | 1.17e6 | inactive |
